# Measurements from PubChem BioAssay AID1671190 (National Center for Advancing Translational Sciences (NCATS), 2021).
# Sequences of proteins named here, by UniProt entry; tags and fusion partners are left off. A change or cut given only in a name is not applied to a line headed by its entry.
# UniProt P18054: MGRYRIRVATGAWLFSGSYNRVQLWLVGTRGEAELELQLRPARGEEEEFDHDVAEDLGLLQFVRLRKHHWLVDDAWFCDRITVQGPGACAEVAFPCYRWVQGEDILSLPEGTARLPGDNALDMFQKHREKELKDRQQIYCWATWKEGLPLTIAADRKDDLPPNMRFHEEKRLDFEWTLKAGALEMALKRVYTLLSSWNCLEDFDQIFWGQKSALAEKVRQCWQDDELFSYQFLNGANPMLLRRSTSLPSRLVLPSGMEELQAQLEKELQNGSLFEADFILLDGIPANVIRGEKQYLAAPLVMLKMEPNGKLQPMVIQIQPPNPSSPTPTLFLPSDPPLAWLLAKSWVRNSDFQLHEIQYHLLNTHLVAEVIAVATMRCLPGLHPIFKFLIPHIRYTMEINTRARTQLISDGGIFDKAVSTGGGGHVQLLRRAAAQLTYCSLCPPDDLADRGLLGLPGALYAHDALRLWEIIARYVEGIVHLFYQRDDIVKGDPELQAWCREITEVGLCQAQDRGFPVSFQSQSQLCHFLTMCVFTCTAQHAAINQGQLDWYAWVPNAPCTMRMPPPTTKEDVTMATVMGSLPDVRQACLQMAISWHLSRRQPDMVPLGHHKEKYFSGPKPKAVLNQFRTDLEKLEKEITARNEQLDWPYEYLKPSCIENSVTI
# The campaign covered roughly 580,000 compounds. About 6,100 (1.1%) were called active. The inconclusive results got no clear call from the source; some entries with a clear call stand among them for comparison. The call rests on the fitted dose curve; in most records, active means well fitted inhibition curve with a large enough effect; inconclusive means small, poorly fitted or top-dose-only effect, or another doubt; inactive means no such curve, though single readings can be large or run the other way. Potencies beside an inconclusive call are fits to weak or partial responses and may not hold up.
# Molecular target: Polyunsaturated fatty acid lipoxygenase ALOX12 (Homo sapiens) (UniProt P18054)
# Assay: Primary qHTS assay for inhibitors of human arachidonate 12S-lipoxygenase (ALOX12): Round 2
# Settings: purified 12hLO, xylenol orange hydroperoxide absorbance; series mostly up to 108 µM
# Summary of the method: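 Purified human 12hLO at 150 nM in 25 mM Hepes, 0.01% Triton X-100, pH 7.0, preincubated 15 min at room temperature with compound. Reaction started with 40 uM arachidonic acid, 30 min at room temperature. Hydroperoxide measured by Fe-xylenol orange, 573/405 nm absorbance ratio.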
# Potency means the concentration at half of the fitted maximal effect.
row,SMILES,Potency
1,NS(=O)(=O)c1ccc(CNC(=S)NCc2ccc(Cl)cc2)cc1,"inconclusive: 44.7 µM [inhibitor, partial curve, poor fit]"
2,Cc1c(N=Cc2ccc(Br)s2)cccc1[N+](=O)[O-],inactive
3,O=C(Nc1ccnn1C1CCN(Cc2ccc(OC3CCCC3)cc2)CC1)C1CC1,active: 8.91 µM
4,CC(=O)Nc1ccc(/C=C/c2nc(-c3ccccc3O)n(-c3ccccc3)n2)cc1,"inconclusive: 112 µM [inhibitor, partial curve, poor fit]"
5,CCCCNC(=S)NNC(=O)c1csc(CC)c1,inactive
6,CN(CC1CCN(CCc2cccc(F)c2)CC1)C(=O)COc1cccnc1,inactive
7,Cc1ccc(NC(=S)N/N=C2/CCCCc3ccccc32)cc1,active: 31.6 µM
8,O=C(Nc1ccc(Cl)c(Cl)c1)C1CC(=O)N(c2ccc(Br)cc2)C1 (stereo not given),"inconclusive: 11.2 µM [inhibitor, full curve]"
9,COc1cccc(CNCCSc2nnnn2C)c1OCc1ccccc1Cl,"inconclusive: 79.4 µM [inhibitor, partial curve, poor fit]"
10,Cc1sc2nc(NCCO)n3nc(-c4ccco4)nc3c2c1C,"inconclusive: 63.1 µM [inhibitor, partial curve, poor fit]"
11,O=C(Nc1cccc(F)c1)/C(=C\c1ccco1)NC(=O)c1cccs1,"inconclusive: 35.5 µM [inhibitor, partial curve, poor fit]"
12,O=C(CC1Sc2ccc(C(F)(F)F)cc2NC1=O)Nc1ccc2c(c1)OCO2 (stereo not given),inactive
13,COC(=O)CNC(=O)Cc1nn(C)c(=O)c2ccccc12,inactive
14,CCCCCc1c(-c2cccc(F)c2)ncn1CCc1ccccc1OC,inactive
15,COc1cccc(NC(=O)Cn2nc(Cc3cccnc3)c3ccccc3c2=O)c1,inactive
16,N#CC1=C(N)Oc2n[nH]c(-c3ccc(F)cc3)c2C1c1cccc(OC(=O)N2CCOCC2)c1 (stereo not given),"inconclusive: 79.4 µM [inhibitor, partial curve, poor fit]"
17,CCN(CC)c1ccc(C=C2C(=O)OC(c3ccccc3)OC2=O)cc1 (stereo not given),"inconclusive: 50.1 µM [inhibitor, partial curve, poor fit]"
18,CC(C)C(C(=O)Nc1ccc2c(c1)OCCO2)N1C(=O)c2ccccc2C1=O (stereo not given),"inconclusive: 126 µM [inhibitor, partial curve, poor fit]"
19,S=c1[nH]nc(-c2cccnc2)n1/N=C/C(Cl)=C\c1ccccc1,"inconclusive: 50.1 µM [inhibitor, partial curve, poor fit]"
20,CNC(=O)c1ccc(CN2CC3(CCN(C(C)=O)CC3)CC2C(=O)O)o1 (stereo not given),"inconclusive: 12.6 µM [inhibitor, partial curve, poor fit]"
